Values from PubChem BioAssay AID1259254 (NCATS, 2017).

Assay: 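Genome-wide screen for genes that prevent DNA re-replication in cancer cells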 (primary screen)
Cells: human HCT116 colorectal cancer cells
Knock-down reagent: single siRNA against human genes
Duration: 3 days
Read-out: 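Imaged Hoechst DNA stain sorts each cell into a cycle phase by DNA amount; per plate, G2 fraction set to 0% for non-targeting and 100% for GMNN siRNA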
Direction: G2 robust z-score and G2 cells, % of GMNN control: higher = more G2 cells, more excess DNA replication; raw share of cells in G2: higher = larger share of cells with G2 DNA content
Hit rule: 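Active siRNAs have a G2 robust z of 5 or more median absolute deviations over the median, which in these data means about 38% or higher of GMNN control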
The whole screen tested about 59,000 reagents; this is a random part of them. About 1,550 of all reagents (2.6%) were called active. 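G2 share is only a proxy for re-replication; each gene was hit by three separate siRNAs, and active genes were retested.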 Raw values vary from plate to plate and are shown uncorrected. The numbers tell different reagents against one gene apart. Not stated in the record: the amount of reagent.

| gene symbol | reagent no. | G2 robust z-score | G2 cells, % of GMNN control | raw share of cells in G2 (%) | outcome |
| --- | --- | --- | --- | --- | --- |
| SQOR | 1 | 2.71 | 22 | 14.8 | inactive |
| SQOR | 2 | -1.2 | -5.44 | 2.42 | inactive |
| SQOR | 3 | -0.192 | 1.62 | 4.81 | inactive |
| QNG1 | 1 | -0.572 | -1.06 | 3.75 | inactive |
| QNG1 | 2 | -0.359 | 0.442 | 3.59 | inactive |
| QNG1 | 3 | 0.687 | 7.8 | 4.77 | inactive |
| FUS | 1 | 8.64 | 63.7 | 28.4 | active |
| FUS | 2 | -0.432 | -0.0699 | 5.24 | inactive |
| FUS | 3 | 0.26 | 4.8 | 5.37 | inactive |
| MIXL1 | 1 | 3 | 24.1 | 15.4 | inactive |
| MIXL1 | 2 | -0.33 | 0.643 | 5.02 | inactive |
| MIXL1 | 3 | -0.425 | -0.025 | 4.19 | inactive |
| PCSK4 | 1 | 2.55 | 20.9 | 12.9 | inactive |
| PCSK4 | 2 | -0.0801 | 2.4 | 5.76 | inactive |
| PCSK4 | 3 | -0.592 | -1.2 | 3.46 | inactive |
| PTP4A1 | 1 | 1.26 | 11.8 | 8.64 | inactive |
| PTP4A1 | 2 | -1.22 | -5.59 | 2.62 | inactive |
| PTP4A1 | 3 | -0.439 | -0.123 | 3.46 | inactive |
| POLR3G | 1 | 1.76 | 15.3 | 12.5 | inactive |
| POLR3G | 2 | 0.56 | 6.91 | 6.08 | inactive |
| POLR3G | 3 | -0.173 | 1.75 | 6.46 | inactive |
| PRR23E | 1 | 0.295 | 5.04 | 5.48 | inactive |
| PRR23E | 2 | -0.447 | -0.18 | 2.97 | inactive |
| PRR23E | 3 | -0.356 | 0.466 | 3.41 | inactive |
| GNAS | 1 | 4.42 | 34.1 | 17.6 | inactive |
| GNAS | 2 | 0.138 | 3.94 | 5.06 | inactive |
| GNAS | 3 | 0.0645 | 3.42 | 6.56 | inactive |
| MYL2 | 1 | -0.282 | 0.984 | 3.52 | inactive |
| MYL2 | 2 | -0.144 | 1.95 | 6.12 | inactive |
| MYL2 | 3 | -1.06 | -4.52 | 3.68 | inactive |
| RRAGC | 1 | -1.31 | -6.25 | 3.06 | inactive |
| RRAGC | 2 | -0.218 | 1.43 | 4.74 | inactive |
| RRAGC | 3 | -0.0963 | 2.29 | 5.16 | inactive |
| H2BW2 | 1 | 0.83 | 8.81 | 6.85 | inactive |
| H2BW2 | 2 | 0.773 | 8.41 | 6.3 | inactive |
| H2BW2 | 3 | 0.419 | 5.92 | 5.07 | inactive |
| OR2A12 | 1 | -0.268 | 1.08 | 4.36 | inactive |
| OR2A12 | 2 | -0.487 | -0.461 | 3.06 | inactive |
| OR2A12 | 3 | -0.473 | -0.36 | 4.04 | inactive |
| CLPB | 1 | -0.0789 | 2.41 | 5.07 | inactive |
| CLPB | 2 | 1.41 | 12.9 | 10.8 | inactive |
| CLPB | 3 | -0.624 | -1.42 | 4.26 | inactive |
| CATSPER4 | 1 | -0.216 | 1.45 | 4.94 | inactive |
| CATSPER4 | 2 | 0.798 | 8.58 | 8.41 | inactive |
| CATSPER4 | 3 | -0.484 | -0.435 | 4.63 | inactive |
| UVSSA | 1 | 3.3 | 26.2 | 11.3 | inactive |
| UVSSA | 2 | 0.618 | 7.31 | 7.23 | inactive |
| UVSSA | 3 | -0.704 | -1.98 | 3.51 | inactive |
| SPRR1B | 1 | -0.704 | -1.98 | 3.87 | inactive |
| SPRR1B | 2 | -0.319 | 0.721 | 4.2 | inactive |
| SPRR1B | 3 | 1.43 | 13 | 10.1 | inactive |
| TP53INP2 | 1 | -0.903 | -3.39 | 1.96 | inactive |
| TP53INP2 | 2 | -0.0507 | 2.61 | 5.38 | inactive |
| TP53INP2 | 3 | 0.158 | 4.08 | 6.41 | inactive |
| FOXK2 | 1 | 0.903 | 9.32 | 8.43 | inactive |
| FOXK2 | 2 | -0.771 | -2.46 | 4.75 | inactive |
| FOXK2 | 3 | -0.433 | -0.0769 | 4.17 | inactive |
| PKD1L1 | 1 | -0.396 | 0.183 | 3.67 | inactive |
| PKD1L1 | 2 | 0.281 | 4.94 | 4.62 | inactive |
| PKD1L1 | 3 | -1.08 | -4.61 | 1.31 | inactive |
| IFT80 | 1 | 1.16 | 11.1 | 8.72 | inactive |
| IFT80 | 2 | 0.144 | 3.98 | 6.36 | inactive |
| IFT80 | 3 | -0.0214 | 2.82 | 3.92 | inactive |
| MPV17L2 | 1 | 5.11 | 39 | 17.1 | active |
| MPV17L2 | 2 | -1.35 | -6.56 | 1.51 | inactive |
| MPV17L2 | 3 | -0.255 | 1.18 | 2.76 | inactive |
| LOC649305 (retired record) | 1 | -0.689 | -1.88 | 2.48 | inactive |
| LOC649305 (retired record) | 2 | -1.14 | -5.03 | 1.29 | inactive |
| LOC649305 (retired record) | 3 | -0.765 | -2.41 | 2.27 | inactive |

Reformatted: results already given.
gene symbol,reagent no.,G2 robust z-score,"G2 cells, % of GMNN control",raw share of cells in G2 (%),outcome
OR2A12,3,-0.473,-0.36,4.04,inactive
CLPB,1,-0.0789,2.41,5.07,inactive
CLPB,2,1.41,12.9,10.8,inactive
CLPB,3,-0.624,-1.42,4.26,inactive
CATSPER4,1,-0.216,1.45,4.94,inactive
CATSPER4,2,0.798,8.58,8.41,inactive
CATSPER4,3,-0.484,-0.435,4.63,inactive
